Experimental data from article PMC6558007.

B1: AtEMB3003-HA (protein, UniProt Q9C8P0 32-465)
chain: IIPIQAKIREIFMPALSSTMTEGKIVSWVKSEGDKLNKGESVVVVESDKADMDVETFYDGYLAAIMVEEGGVAPVGSAIALLAETEDEIADAKAKASGGGGGGDSKAPPASPPTAAVEAPVSVEKKVAAAPVSIKAVAASAVHPASEGGKRIVASPYAKKLAKELKVELAGLVGSGPMGRIVAKDVEAVAAGGGVQAAVAVKEVVAAPGVELGSVVPFTTMQGAVSRNMVESLGVPTFRVGYTISTDALDALYKKIKSKGVTMTALLAKATALALAKHPVVNSSCRDGNSFVYNSSINVAVAVAIDGGLITPVLQNADKVDIYSLSRKWKELVDKARAKQLQPQEYNTGTFTLSNLGMFGVDRFDAILPPGTGAIMAVGASQPSVVATKDGRIGMKNQMQVNVTADHRVIYGADLAQFLQTLASIIEDPKDLTF
B2: Cluc-AtEMB3003 (protein, UniProt Q9C8P0 32-465)
chain: IIPIQAKIREIFMPALSSTMTEGKIVSWVKSEGDKLNKGESVVVVESDKADMDVETFYDGYLAAIMVEEGGVAPVGSAIALLAETEDEIADAKAKASGGGGGGDSKAPPASPPTAAVEAPVSVEKKVAAAPVSIKAVAASAVHPASEGGKRIVASPYAKKLAKELKVELAGLVGSGPMGRIVAKDVEAVAAGGGVQAAVAVKEVVAAPGVELGSVVPFTTMQGAVSRNMVESLGVPTFRVGYTISTDALDALYKKIKSKGVTMTALLAKATALALAKHPVVNSSCRDGNSFVYNSSINVAVAVAIDGGLITPVLQNADKVDIYSLSRKWKELVDKARAKQLQPQEYNTGTFTLSNLGMFGVDRFDAILPPGTGAIMAVGASQPSVVATKDGRIGMKNQMQVNVTADHRVIYGADLAQFLQTLASIIEDPKDLTF

How the values were obtained:
[1] = target: HaGland5-GFP (Heterodera avenae); experiment: co-IP; HaGland5-GFP (or GFP, Ha15186-GFP) co-expressed with AtEMB3003-HA in N. benthamiana by agroinfiltration, 48 h; whole protein extract; Western blot
[2] = target: HaGland5-NLuc (Heterodera avenae); experiment: split reporter; firefly luciferase complementation imaging (LCI) in N. benthamiana leaves, 60 h after agroinfiltration, CCD imaging of LUC activity

Binder | binding [1] | binding [2]
B1 | binds | 
B2 |  | binds

Results are given in words; binding and its absence hold for the method and conditions named. Binding seen in cells or lysates may run through a third protein. Binding can be weak; no strength is given. Tags and fused reporters may be left off the sequences shown.
